Measurements: paper PMC11679285
No constants are given. Whether binding was seen depends on the method and setting. Binding seen in cells or lysates may run through a third protein. A result given as binding can be weak or reduced; the word gives no strength.

Molecular target: tumor necrosis factor receptor 1 (TNFR1) (human (endogenous in MCF7))
Assay: co-IP; MCF7 lysate in NETN buffer, immunoprecipitation with a TNFR1 antibody, western blot; cells treated with or without 10 uM jacaranone for 3 h, then TNFα (20 ng/mL) for 0.5 h

B1: TNFR1-associated death domain protein (TRADD) (protein, UniProt Q15628 1-312)
chain: MAAGQNGHEEWVGSAYLFVESSLDKVVLSDAYAHPQQKVAVYRALQAALAESGGSPDVLQMLKIHRSDPQLIVQLRFCGRQPCGRFLRAYREGALRAALQRSLAAALAQHSVPLQLELRAGAERLDALLADEERCLSCILAQQPDRLRDEELAELEDALRNLKCGSGARGGDGEVASAPLQPPVPSLSEVKPPPPPPPAQTFLFQGQPVVNRPLSLKDQQTFARSVGLKWRKVGRSLQRGCRALRDPALDSLAYEYEREGLYEQAFQLLRRFVQAEGRRATLQRLVEALEENELTSLAEDLLGLTDPNGGLA
With B1 the binding was “binds”.
